{"source": "patent US20100124538A1", "about": "“TOPICAL APPLICATION OF FLUOCINOLONE ACETONIDE FOR DEPIGMENTATION OF THE SKIN” (GALDERMA RESEARCH & DEVELOPMENT, priority 2007, published 2010)", "origin": "cited, not measured here", "tested_on": "skin", "details": "dexamethasone alone; cited from earlier work", "note": "At least one structure is not confirmed: it was looked up by name or label, or the drawing left a doubt.", "data": [{"smiles": "C[C@@H]1C[C@H]2[C@@H]3CCC4=CC(=O)C=C[C@]4(C)[C@@]3(F)[C@@H](O)C[C@]2(C)[C@@]1(O)C(=O)CO", "note": "[dexamethasone]", "values": [{"measurement": "depigmentation", "value": "does not induce any depigmentation"}]}]}
